Marks after values point to notes of the source that are not given here.
Tested on: male Sprague-Dawley rats
Test: Feed and weight measurements in male Sprague-Dawley rats injected for 6 weeks
Assay type: in vivo, rat
Conditions: for FER compared to V / Feed intake compared to V treated animals: P<0.05; for FER / Feed Intake: daily s.c. injection, 6 weeks; for FER: 0.1 μg/g body weight
Method: Forty male Sprague-Dawley rats (5 wk old, n=9-10 rats/treatment, from Harlan Sprague-Dawley, Inc., Indianapolis, Ind.) were injected with either genistein (G), daidzein (D), estradiol (E), or a vehicle control (V). Each animal in group V received a daily 0.1 cc subcutaneous injection, for six weeks, of a 10% ethanol-90% olive oil solution; the other treatments received their respective compound as a daily 0.1 cc subcutaneous injection, for six weeks, e.g., 0.1 μg of compound/g of body weight, in a 10% ethanol-90% olive oil solution.
Animal weight and feed intake were measured weekly during the six week study, and the subsequent feed-efficiency ratio [FER (g of weight change/g of feed intake)] was determined. Following sacrifice, the abdominal fat pads, liver, and reproductive organs were removed and weighed for comparison.
These studies used a randomized design. All data were analyzed by one-way analysis of variance (ANOVA) and post-hoc comparisons were made with Tukey pairwise comparisons test. Significance was confirmed at P≦0.05 (SYSTAT 7.0, SPSS INC., 1997), and all values are reported as means±standard error of the mean.

SMILES	FER compared to V	Feed intake compared to V treated animals	FER	Feed Intake
O=c1c(-c2ccc(O)cc2)coc2cc(O)ccc12 [D, daidzein]	lower (P<0.05)	significantly (P<0.05) higher	.284 g of weight change/g of food intake	857.44^a g
O=c1c(-c2ccc(O)cc2)coc2cc(O)cc(O)c12 [G, genistein]	lower (P<0.05)	significantly (P<0.05) higher	.277 g of weight change/g of food intake	855.80^a g

Source: patent US6592910B1, “Methods of treating clinical diseases with isoflavones” (Board of Trustees, Southern Illinois University, priority 1999, dated 2003)
